Assay results as given in paper PMC6155239, “Targeting PFKFB3 radiosensitizes cancer cells and suppresses homologous recombination” (Nature Communications, 2018).
Results are given in words; binding and its absence hold for the method and conditions named. In cells and extracts the contact can be indirect. Some binding calls cover weakened binding; strength is not graded here.

By UniProt entry, the sequences of proteins in these tests, tags left out.
UniProt Q16875: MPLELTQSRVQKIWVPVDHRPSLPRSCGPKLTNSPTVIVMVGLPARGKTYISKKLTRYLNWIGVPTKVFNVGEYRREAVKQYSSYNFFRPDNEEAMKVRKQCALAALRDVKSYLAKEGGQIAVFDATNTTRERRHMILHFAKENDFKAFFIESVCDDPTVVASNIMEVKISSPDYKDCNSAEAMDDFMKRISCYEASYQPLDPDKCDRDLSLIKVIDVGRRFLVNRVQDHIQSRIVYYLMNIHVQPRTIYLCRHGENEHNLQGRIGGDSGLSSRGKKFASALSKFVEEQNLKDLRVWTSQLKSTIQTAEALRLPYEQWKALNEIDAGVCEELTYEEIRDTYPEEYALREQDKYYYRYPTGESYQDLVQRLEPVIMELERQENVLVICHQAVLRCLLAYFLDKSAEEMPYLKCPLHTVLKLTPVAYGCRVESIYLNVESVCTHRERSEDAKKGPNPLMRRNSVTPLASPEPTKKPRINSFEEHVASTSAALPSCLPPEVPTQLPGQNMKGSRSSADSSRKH

Tests used:
[1] = molecular target: T1, RRM2 subunit of ribonucleotide reductase (human (endogenous in U2OS)) (UniProt P31350); assay: co-IP; U2OS cells transfected with FLAG-PFKFB3, left untreated (non-IR); supernatant immunoprecipitated with RRM2 antibody overnight at 4 °C, Protein G, immunoblot with FLAG antibody
T1 sequence: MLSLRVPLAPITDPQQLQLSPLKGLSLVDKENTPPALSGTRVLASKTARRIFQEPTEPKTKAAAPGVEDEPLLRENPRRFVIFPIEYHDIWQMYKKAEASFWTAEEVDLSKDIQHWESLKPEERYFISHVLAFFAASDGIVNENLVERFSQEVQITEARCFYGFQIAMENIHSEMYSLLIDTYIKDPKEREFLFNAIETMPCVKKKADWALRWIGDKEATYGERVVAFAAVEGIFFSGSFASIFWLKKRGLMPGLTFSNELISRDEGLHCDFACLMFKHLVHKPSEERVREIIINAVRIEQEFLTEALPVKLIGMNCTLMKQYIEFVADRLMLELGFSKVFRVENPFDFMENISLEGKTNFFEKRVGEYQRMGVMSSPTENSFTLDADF

[2] = molecular target: T1, RRM2 subunit of ribonucleotide reductase (human (endogenous in U2OS)); assay: co-IP; U2OS cells transfected with FLAG-PFKFB3, exposed to IR (6 Gy), lysed 2 h post-IR; supernatant immunoprecipitated with RRM2 antibody overnight at 4 °C, Protein G, immunoblot with FLAG antibody

- binding [2]: binds
Substance: FLAG-PFKFB3 (from UniProt Q16875 1-520) (enzyme)
- binding [1]: no binding (condition: cells not exposed to IR)
